For part of these data: The comparison behind a weaker result is the experiment's own reference, which may not be listed here. For part of these data: The exact form of at least one protein or probe is not confirmed. For part of these data: The direction of at least one scale is not stated here.
How the values were obtained:
[1] = target: THOC4 (ALYREF) (Homo sapiens?) (UniProt Q86V81); assay: SPR; settings: purified recombinant protein, counted as no binding
[2] = target: hSSB1 (Homo sapiens) (UniProt Q9BQ15); assay: SPR; settings: purified recombinant protein
[3] = target: hSSB2 (Homo sapiens) (UniProt Q96AH0); assay: EMSA; settings: 2'-OMe all, PS all; Tris pH 7.5, 100 mM KCl, 1 mM EDTA, 37C; single EMSA; purified recombinant protein; label: FAM
[4] = gapmer, 2'-OMe PS wings, unmodified DNA middle
[5] = gapmer, 2'-OMe PS wings, unmodified DNA middle, counted as no binding
[6] = gapmer: 2'-OMe PS wings (5 nt each), central unmodified, LSA_In3E3 = 1, variant of LSA_ATG
[7] = 2'-OMe and PS except around T8 as printed
[8] = gapmer: 2'-OMe PS wings (5 nt each), central unmodified DNA, LSA_In3E3 = 1, variant of LSA_In3E3

## GAGUAAACATTCTGTGTGGAGUC [DKLS799151 (SEQ 20)]
[1]; [4]
  binding signal (normalized Rmax): 0.02
[2]; [5]
  binding signal (normalized Rmax): 0.12

## CAGAGGCAGCAGUACGACGG [LSA_ATG 2'-OMe PS ends (DKLS286198)]
[1]; 2'-OMe all, PS three at each end, LSA_In3E3 = 1, variant of LSA_ATG
  binding signal (normalized Rmax): -0.02

## CUCAUUCCUACCGACACCCC [Neg_C]
[3]
  binding result: binds more weakly

## CAGAGGCAGCAGTACGACGG [LSA_ATG gapmer (DKLS292688)]
[1]; [6]
  binding signal (normalized Rmax): 0
[2]; [6]
  binding signal (normalized Rmax): 0.2

## GAGGAACTCCGCCGC [DKLS474224 (SEQ 24)]
[1]; [7]
  binding signal (normalized Rmax): 0.14
[2]; [7]
  binding signal (normalized Rmax): 0.23

## CGCGUCACTCGCACTCGCCU [In3E3_CT5 gapmer (DKLS415889)]
[1]; [4]
  binding signal (normalized Rmax): -0.16
[2]; [5]
  binding signal (normalized Rmax): 0.05

## CCAGUGAGCCGGACUUGCCU [In3E3 2'-OMe PS ends (DKLS621499)]
[1]; 2'-OMe all, PS three at each end, LSA_In3E3 = 1, variant of LSA_In3E3
  binding signal (normalized Rmax): -0.13

## CUCAUTCCTACCGACACCCC [NEG_C_GAP (DKLS848880)]
[1]; [4]
  binding signal (normalized Rmax): -0.1
[2]; [4]
  binding signal (normalized Rmax): 0.56

## CCAGUGAGCCGGACTUGCCU [In3LSA_GAP]
[1]; [8]
  binding signal (normalized Rmax): -0.1
[2]; [8]
  binding signal (normalized Rmax): 0.55

## CCAUCTGTAATTACAAAAUUAAA [DKLS656574 (SEQ 19)]
[1]; [4]
  binding signal (normalized Rmax): 0.01
[2]; [5]
  binding signal (normalized Rmax): -0.03

## CACGUACCUUAGUGCCUCAC [Open_L ZEN (DKLS665920)]
[2]; 2'-OMe all, ZEN at both ends, counted as no binding
  binding signal (normalized Rmax): 0.07

## CUGCCTAAGTAAAAAGTGUAAAC [DKLS934835 (SEQ 18)]
[1]; [4]
  binding signal (normalized Rmax): 0
[2]; [5]
  binding signal (normalized Rmax): -0.14

## CCAGUGAGCCGGACUUGCCU [In3E3 ZEN (DKLS991101)]
[1]; 2'-OMe all, phosphodiester, ZEN at both ends, LSA_In3E3 = 1, variant of LSA_In3E3
  binding signal (normalized Rmax): -0.13

## GUCUCCGTCGTCATGCUGCC [ASO_ATG gapmer (DKLS426564)]
[1]; [4]
  binding signal (normalized Rmax): -0.03
[2]; [4]
  binding signal (normalized Rmax): 0.16

## GUGCAUGGAAUCACGGAGUG [Open_A ZEN (DKLS651753)]
[1]; 2'-OMe all, phosphodiester, ZEN at both ends, LSA_In3E3 = 1, variant of Open_A_1
  binding signal (normalized Rmax): -0.12
[2]; 2'-OMe all, phosphodiester, ZEN at both ends, LSA_In3E3 = 1, variant of Open_A_1, counted as no binding
  binding signal (normalized Rmax): 0.07

## CCAGUGAGCCGGACUUGCCU [In3E3 unmodified PD (DKLS300878)]
[1]; none, phosphodiester, LSA_In3E3 = 1, variant of LSA_In3E3
  binding signal (normalized Rmax): -0.05
[2]; none, phosphodiester, LSA_In3E3 = 1, variant of LSA_In3E3, counted as no binding
  binding signal (normalized Rmax): 0.03

## CAGAGGCAGCAGUACGACGG [LSA_ATG unmodified PD (DKLS858330)]
[1]; none, phosphodiester, LSA_In3E3 = 1, variant of LSA_ATG
  binding signal (normalized Rmax): 0.04
[2]; none, phosphodiester, LSA_In3E3 = 1, variant of LSA_ATG, counted as no binding
  binding signal (normalized Rmax): 0.03

## CAGAGGCAGCAGUACGACGG [LSA_ATG 2'-OMe PD (DKLS459014)]
[1]; 2'-OMe all, phosphodiester, LSA_In3E3 = 1, variant of LSA_ATG
  binding signal (normalized Rmax): -0.02
[2]; 2'-OMe all, phosphodiester, LSA_In3E3 = 1, variant of LSA_ATG, counted as no binding
  binding signal (normalized Rmax): 0.1

## GUGCAUGGAAUCACGGAGUG [Open_A 2'-OMe PD (DKLS934835)]
[1]; 2'-OMe all, phosphodiester, LSA_In3E3 = 1, variant of Open_A_1
  binding signal (normalized Rmax): 0
[2]; 2'-OMe all, phosphodiester, LSA_In3E3 = 1, variant of Open_A_1, counted as no binding
  binding signal (normalized Rmax): -0.03

## CCAGUGAGCCGGACUUGCCU [In3E3 2'-OMe PD (DKLS644620)]
[1]; 2'-OMe all, phosphodiester, LSA_In3E3 = 1, variant of LSA_In3E3
  binding signal (normalized Rmax): -0.14
[2]; 2'-OMe all, phosphodiester, LSA_In3E3 = 1, variant of LSA_In3E3, counted as no binding
  binding signal (normalized Rmax): 0.03

## CAGAGGCAGCAGUACGACGG [LSA_ATG ZEN (DKLS649218)]
[1]; 2'-OMe all, ZEN at both ends
  binding signal (normalized Rmax): -0.09

— US20200230168
